US4470971A (Merck & Co., Inc., priority 1982, dated 1984)

Assay: peptide synthesis
Conditions: whole synthesis, TLC

N-Isobutyryl-L-histidyl-L-prolyl-L-phenylalanyl-L-histidyl-(3S,4S)-statyl-L-valyl-L-histidyl-L-glycyl amide
final HPLC purity: Greater than 99% single peak
